These are yes or no findings as the source states them, for the method shown. Binding seen in cells or lysates may run through a third protein. Some results given as binding are weak or reduced against the parent protein; the word gives no strength.
Columns and labels:
[1] = target: T1, MCM3 from BAL17 cell lysate (mouse) (UniProt P25206); test: GST pull-down from BAL17 lysate, anti-MCM3 blot
T1 sequence (looked up): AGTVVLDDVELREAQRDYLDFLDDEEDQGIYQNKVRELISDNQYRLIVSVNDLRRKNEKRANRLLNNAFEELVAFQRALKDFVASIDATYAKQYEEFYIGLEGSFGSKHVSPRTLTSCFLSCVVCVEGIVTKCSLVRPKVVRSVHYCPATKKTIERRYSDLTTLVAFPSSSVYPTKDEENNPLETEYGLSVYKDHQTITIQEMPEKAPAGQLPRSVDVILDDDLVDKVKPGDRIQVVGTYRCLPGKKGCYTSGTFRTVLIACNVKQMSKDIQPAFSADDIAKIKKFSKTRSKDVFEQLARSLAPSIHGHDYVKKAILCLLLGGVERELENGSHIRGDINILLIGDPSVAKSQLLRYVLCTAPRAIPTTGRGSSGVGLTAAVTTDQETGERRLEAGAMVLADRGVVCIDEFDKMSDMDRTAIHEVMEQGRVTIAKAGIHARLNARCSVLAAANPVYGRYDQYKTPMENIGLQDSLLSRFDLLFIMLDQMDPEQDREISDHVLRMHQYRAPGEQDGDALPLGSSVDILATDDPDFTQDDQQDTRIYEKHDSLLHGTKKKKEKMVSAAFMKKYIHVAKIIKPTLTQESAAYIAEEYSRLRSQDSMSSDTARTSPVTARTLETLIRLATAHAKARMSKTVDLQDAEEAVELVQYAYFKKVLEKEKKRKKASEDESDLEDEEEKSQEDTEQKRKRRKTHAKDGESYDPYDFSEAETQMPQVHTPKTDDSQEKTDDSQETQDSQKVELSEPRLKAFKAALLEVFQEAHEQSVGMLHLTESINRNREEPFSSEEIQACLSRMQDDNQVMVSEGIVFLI

Chains of the proteins cited; added tags and fusions are not shown. Lines headed by an entry give the natural chain unless they say otherwise; changes in a name come on top.
UniProt Q9WUU9: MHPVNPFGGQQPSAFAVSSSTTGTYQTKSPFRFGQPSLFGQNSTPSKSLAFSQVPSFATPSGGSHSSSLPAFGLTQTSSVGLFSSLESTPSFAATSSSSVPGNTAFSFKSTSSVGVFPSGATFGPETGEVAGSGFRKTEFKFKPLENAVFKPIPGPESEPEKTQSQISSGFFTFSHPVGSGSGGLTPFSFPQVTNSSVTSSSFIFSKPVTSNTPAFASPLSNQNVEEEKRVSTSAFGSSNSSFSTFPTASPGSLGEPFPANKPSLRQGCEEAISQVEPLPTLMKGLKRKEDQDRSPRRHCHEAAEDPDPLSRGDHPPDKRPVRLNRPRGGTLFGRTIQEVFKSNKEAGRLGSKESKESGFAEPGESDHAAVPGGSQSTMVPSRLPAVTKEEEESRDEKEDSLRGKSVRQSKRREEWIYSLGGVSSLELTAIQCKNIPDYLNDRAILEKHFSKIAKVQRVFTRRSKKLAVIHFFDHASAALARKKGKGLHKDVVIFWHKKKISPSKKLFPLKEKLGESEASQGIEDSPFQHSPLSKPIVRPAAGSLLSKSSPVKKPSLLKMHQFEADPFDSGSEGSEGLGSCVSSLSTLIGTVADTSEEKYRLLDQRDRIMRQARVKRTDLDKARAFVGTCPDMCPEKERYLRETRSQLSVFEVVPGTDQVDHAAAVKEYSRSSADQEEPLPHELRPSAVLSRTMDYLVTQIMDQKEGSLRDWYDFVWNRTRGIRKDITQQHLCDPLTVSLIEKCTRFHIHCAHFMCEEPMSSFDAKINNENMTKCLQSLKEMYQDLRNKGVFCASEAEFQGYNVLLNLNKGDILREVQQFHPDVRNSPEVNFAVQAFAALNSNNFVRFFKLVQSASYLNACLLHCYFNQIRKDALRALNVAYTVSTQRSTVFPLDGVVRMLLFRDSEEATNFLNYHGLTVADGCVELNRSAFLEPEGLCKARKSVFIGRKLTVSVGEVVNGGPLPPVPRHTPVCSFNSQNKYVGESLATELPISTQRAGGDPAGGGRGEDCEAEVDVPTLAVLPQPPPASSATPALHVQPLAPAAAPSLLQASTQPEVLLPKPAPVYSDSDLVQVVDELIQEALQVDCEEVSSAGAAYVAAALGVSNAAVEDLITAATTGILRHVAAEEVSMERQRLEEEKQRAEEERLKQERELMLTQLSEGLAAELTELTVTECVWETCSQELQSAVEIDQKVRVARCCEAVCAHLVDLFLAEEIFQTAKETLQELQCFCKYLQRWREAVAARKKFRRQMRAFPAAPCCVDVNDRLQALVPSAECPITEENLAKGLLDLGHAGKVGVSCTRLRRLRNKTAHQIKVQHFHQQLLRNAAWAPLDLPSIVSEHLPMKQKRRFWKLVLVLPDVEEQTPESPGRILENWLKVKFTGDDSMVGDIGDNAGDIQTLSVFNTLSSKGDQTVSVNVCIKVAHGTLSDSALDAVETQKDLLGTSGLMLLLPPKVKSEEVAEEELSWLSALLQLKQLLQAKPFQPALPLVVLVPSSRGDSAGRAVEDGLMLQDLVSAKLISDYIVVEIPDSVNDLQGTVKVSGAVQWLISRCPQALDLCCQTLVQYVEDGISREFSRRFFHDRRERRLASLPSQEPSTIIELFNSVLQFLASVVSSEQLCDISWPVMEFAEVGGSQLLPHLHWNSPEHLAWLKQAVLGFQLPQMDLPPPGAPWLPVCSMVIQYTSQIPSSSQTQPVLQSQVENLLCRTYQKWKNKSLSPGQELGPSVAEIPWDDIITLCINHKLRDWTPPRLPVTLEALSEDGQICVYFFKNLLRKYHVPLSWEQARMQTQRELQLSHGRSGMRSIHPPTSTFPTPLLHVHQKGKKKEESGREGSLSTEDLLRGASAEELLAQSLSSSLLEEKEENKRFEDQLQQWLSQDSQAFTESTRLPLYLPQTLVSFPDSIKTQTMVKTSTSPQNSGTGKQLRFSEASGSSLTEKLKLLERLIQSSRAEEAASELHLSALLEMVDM

[2] = target: T2, [^35S]-labeled MCM3 synthesized in vitro (UniProt P25206); test: GST pull-down of in vitro translated MCM3, autoradiography
T2 sequence (radio-labeled with ^35S-methionine, looked up): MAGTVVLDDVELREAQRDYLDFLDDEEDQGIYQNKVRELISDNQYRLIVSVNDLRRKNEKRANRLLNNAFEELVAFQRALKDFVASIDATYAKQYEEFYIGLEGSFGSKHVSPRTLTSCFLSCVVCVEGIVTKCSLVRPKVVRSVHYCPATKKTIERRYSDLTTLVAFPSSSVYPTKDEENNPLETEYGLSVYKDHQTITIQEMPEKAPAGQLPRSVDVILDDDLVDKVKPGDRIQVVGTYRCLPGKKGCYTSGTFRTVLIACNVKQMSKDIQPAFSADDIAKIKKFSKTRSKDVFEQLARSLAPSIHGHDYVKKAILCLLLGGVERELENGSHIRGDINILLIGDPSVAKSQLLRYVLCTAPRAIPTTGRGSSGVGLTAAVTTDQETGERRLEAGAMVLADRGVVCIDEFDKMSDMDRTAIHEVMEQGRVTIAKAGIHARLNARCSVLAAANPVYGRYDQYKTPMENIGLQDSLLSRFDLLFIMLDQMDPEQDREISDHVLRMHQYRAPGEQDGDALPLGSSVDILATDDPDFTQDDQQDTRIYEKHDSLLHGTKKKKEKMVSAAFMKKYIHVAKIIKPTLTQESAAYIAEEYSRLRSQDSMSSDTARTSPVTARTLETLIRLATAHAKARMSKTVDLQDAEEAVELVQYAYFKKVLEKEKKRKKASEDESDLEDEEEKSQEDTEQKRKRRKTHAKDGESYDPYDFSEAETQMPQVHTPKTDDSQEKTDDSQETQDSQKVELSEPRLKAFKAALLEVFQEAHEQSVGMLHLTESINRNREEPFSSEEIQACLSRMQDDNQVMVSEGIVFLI

[3] = target: MCM3-HA (HA epitope-tagged MCM3) (UniProt P25206); test: co-immunoprecipitation with anti-HA, anti-FLAG blot, COS7 cells

binding [1]	binding [2]	binding [3]	Substance
binds	binds	–	GST-GANP2 (from UniProt Q9WUU9 382-731)
–	–	binds	FLAG-Gmap80 (from UniProt Q9WUU9 1251-1971)
binds	binds	–	GST-GANP5-7′ (from UniProt Q9WUU9 1251-1971)
–	–	binds	FLAG-Ganp (from UniProt Q9WUU9 1-1971)
